For at least one entry, the source does not settle the construct or the ends of the probe. Results from cells or extracts need not show a direct contact. The comparison behind a weaker result is the experiment's own reference, which may not be listed here.
Tested on: native Elba1 + native Elba2 + native Elba3
Assay: DNA affinity pull-down
Settings: affinity beads: HBB (10 mM HEPES pH 7.4, 0.1 mM EDTA, 10% glycerol), 0.15 M KCl, 0.05% NP-40, 1 mM DTT, protein in an extract, label: 5' biotin on bottom …

Sequence	binding result (eluted at 1.0 M KCl)	binding result (bulk unbound, small amount in 1.0 M KCl eluate)
TGCAGCGCCCAATAAGCAAATGCAGCGCCCAATAAGCAAATGCAGCGCCCAATAAGCAAATG / AGCATTTGCTTATTGGGCGCTGCATTTGCTTATTGGGCGCTGCATTTGCTTATTGGGCGCTGCA [3x Elba-site]	binds	
TGCAGCGCCCCCGAAGCAAATGCAGCGCCCCCGAAGCAAATGCAGCGCCCCCGAAGCAAATG / AGCATTTGCTTCGGGGGCGCTGCATTTGCTTCGGGGGCGCTGCATTTGCTTCGGGGGCGCTGCA [3x Elba-M3-site]		binds more weakly
